The target in this assay is Epidermal growth factor receptor (human (endogenous in HCT116 and HBL-100)) (UniProt P00533). Kind of assay: co-IP; HCT116^MUC1Full cells treated with control or EGF 20 ng/ml for 10 min at 37 C; lysed in PBS with 1% Triton-X-100; immunoprecipitation with anti-EGFR (DB81); immunoblot with anti-galectin-3.

No constants are given. Whether binding was seen depends on the method and setting. In cells and extracts the contact can be indirect. Some results given as binding are weak or reduced against the parent protein; the word gives no strength.

Drawing on PMC5635220, this text covers binding for one substance.

As for “galectin-3 (endogenous, HCT116^MUC1Full cells) (from UniProt P17931 1-250)”, the binding entry was “binds weakly”.
